Results from publication PMC5450231.
No constants are given. Whether binding was seen depends on the method and setting. In cells and extracts the contact can be indirect. Binding can be weak; no strength is given.

Chains of the proteins cited; added tags and fusions are not shown. Lines headed by an entry give the natural chain unless they say otherwise; changes in a name come on top. Residues count along the entry.
UniProt Q10589, residues 1-161: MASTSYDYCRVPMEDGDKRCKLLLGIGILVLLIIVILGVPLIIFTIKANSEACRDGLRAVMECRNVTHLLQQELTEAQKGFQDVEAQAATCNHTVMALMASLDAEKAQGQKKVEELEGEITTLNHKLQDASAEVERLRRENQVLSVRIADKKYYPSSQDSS

Molecular target: BST2 (as used with endogenous NEDD4, Fig. S1C,D) (UniProt Q10589)
Assay: co-IP; endogenous NEDD4 with BST2 (Fig. S1C,D); cells and direction not given

## endogenous NEDD4 (from UniProt P46934-4) (enzyme)
  binding: binds
